## Primary screen of a compound library

Amino acid sequences for entries named in this document (tags omitted). Residues count along the entry.
UniProt A4I591, 1-473: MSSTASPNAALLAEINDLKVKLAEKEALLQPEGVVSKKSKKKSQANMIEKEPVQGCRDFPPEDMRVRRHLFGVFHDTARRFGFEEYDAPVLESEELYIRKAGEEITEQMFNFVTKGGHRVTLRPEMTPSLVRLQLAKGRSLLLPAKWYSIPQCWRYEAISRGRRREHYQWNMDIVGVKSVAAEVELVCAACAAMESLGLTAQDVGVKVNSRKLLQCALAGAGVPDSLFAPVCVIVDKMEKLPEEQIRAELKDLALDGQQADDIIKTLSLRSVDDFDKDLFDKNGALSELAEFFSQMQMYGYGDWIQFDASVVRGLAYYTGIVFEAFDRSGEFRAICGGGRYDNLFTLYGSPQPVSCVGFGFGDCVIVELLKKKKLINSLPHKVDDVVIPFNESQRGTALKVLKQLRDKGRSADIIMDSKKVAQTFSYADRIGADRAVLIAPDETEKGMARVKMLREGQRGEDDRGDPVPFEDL
UniProt I6X8D2, whole entry: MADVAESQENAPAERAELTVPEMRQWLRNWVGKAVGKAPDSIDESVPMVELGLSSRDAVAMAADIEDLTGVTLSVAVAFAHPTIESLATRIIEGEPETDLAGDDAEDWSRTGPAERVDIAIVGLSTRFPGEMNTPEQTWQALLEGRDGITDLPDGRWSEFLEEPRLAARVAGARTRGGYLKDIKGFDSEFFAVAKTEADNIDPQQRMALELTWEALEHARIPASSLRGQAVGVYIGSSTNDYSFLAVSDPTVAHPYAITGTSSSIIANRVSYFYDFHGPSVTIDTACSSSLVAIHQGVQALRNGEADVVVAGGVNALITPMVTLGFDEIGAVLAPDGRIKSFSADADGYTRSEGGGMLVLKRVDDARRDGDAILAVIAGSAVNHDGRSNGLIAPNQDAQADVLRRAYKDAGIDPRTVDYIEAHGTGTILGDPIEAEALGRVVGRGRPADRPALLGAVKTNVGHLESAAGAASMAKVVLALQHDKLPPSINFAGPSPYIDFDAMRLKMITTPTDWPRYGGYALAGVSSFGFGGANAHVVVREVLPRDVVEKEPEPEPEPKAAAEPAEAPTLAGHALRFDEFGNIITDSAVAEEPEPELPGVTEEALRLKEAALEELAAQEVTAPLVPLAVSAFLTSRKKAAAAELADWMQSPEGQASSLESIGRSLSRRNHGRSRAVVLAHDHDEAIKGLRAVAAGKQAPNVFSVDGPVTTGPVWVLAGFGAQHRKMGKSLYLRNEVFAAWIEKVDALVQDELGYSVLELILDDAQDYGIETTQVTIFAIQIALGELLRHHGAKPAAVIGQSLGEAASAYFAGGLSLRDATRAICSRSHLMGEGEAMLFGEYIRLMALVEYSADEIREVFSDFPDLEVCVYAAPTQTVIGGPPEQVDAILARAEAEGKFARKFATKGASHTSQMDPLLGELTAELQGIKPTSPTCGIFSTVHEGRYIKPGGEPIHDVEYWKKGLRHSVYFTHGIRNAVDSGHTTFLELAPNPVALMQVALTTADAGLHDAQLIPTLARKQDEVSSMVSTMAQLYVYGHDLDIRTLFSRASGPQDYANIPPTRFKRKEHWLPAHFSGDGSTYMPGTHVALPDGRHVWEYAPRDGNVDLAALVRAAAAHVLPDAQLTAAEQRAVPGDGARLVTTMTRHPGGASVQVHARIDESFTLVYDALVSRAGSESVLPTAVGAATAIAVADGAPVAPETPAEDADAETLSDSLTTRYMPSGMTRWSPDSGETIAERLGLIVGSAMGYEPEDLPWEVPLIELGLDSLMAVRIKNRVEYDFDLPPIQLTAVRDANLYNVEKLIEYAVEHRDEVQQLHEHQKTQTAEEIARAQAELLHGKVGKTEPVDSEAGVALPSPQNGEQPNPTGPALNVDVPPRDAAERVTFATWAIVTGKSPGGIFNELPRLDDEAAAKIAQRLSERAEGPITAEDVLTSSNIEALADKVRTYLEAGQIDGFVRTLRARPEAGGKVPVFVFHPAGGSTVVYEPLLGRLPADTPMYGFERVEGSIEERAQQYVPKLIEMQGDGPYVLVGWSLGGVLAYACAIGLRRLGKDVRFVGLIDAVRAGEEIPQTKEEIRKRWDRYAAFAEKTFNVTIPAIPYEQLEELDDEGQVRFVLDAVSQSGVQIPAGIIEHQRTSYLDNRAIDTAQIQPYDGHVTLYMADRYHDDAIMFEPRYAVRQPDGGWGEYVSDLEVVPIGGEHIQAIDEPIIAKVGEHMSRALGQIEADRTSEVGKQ

The filed quantity is “Percent Effect” (%).
How 0% and 100% were set is not recorded. Most values in the screen are low, and negative values occur.
Compounds were drawn at random from those tested, without regard to their results.

Leishmania in macrophages: 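Cell assay of Leishmania donovani living inside macrophages; the read-out is not stated. Compounds at 30 µM. The record gives no direction; compounds that gave an IC50 in retests scored well above the rest, so higher reads as stronger inhibition. Size under these conditions: about 69,000 compounds, about 1,000 of them at 50% or above in at least one test.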
LiHisRS: 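Enzyme assay of histidyl-tRNA synthetase; the read-out is not stated. Target: Histidine-tRNA ligase, Leishmania infantum (UniProt A4I591). Compounds at 30 µM. Direction is inferred from retests: higher values go with stronger inhibition. The assay is labelled LdHisRS but filed under L. infantum. Of about 69,000 compounds tested this way, about 410 (0.6%) reached 50% or more in at least one test.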
Pks13 thioesterase: 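Polyketide synthase Pks13, Mycobacterium tuberculosis (UniProt I6X8D2). Enzyme assay of the thioesterase domain of polyketide synthase 13; the read-out is not stated. Compounds at 30 µM. The record gives no direction; the compounds picked for IC50 retests had high values, so higher reads as stronger inhibition. Of about 67,000 compounds tested this way, about 300 (0.46%) reached 50% or more in at least one test.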

{"compound": "O=C(CN1CCCCC1Cn1cncn1)NCCc1ccsc1", "stereo": "stereo not given", "Leishmania in macrophages": 2.591, "LiHisRS": 10.17, "Pks13 thioesterase": -4.049}
{"compound": "CN(Cc1ncc[nH]1)CC(c1cccs1)N1CCOCC1", "stereo": "stereo not given", "Leishmania in macrophages": -1.036, "LiHisRS": 21.54, "Pks13 thioesterase": -18.64}
{"compound": "NC(=O)c1cnc2n1CCN(C(=O)c1ccc(Cn3cccc3)cc1)C2", "Leishmania in macrophages": -5.773, "LiHisRS": 63.22, "Pks13 thioesterase": -10.61}
{"compound": "COc1c(Br)cccc1CCNC(=O)c1ccon1", "Leishmania in macrophages": 20.24, "LiHisRS": 5, "Pks13 thioesterase": -29.87}
{"compound": "CN(C)CCN1CC(C(=O)NCc2cccc(-n3cccn3)c2)CC1=O", "stereo": "stereo not given", "Leishmania in macrophages": 20.03, "LiHisRS": 9.375, "Pks13 thioesterase": -29.39}
{"compound": "[H][C@@]12CN(C3CCN(CC)CC3)C[C@]1([H])N(CCc1cccc(Cl)c1)C(=O)O2", "Leishmania in macrophages": 17.37}
{"compound": "CCOc1ncnc2c1CCN(C(=O)c1ccncc1F)CC2", "LiHisRS": 23.53, "Pks13 thioesterase": -11.71}
{"compound": "COC(=O)C1CCN(C(=O)c2nnc3ccc(Cl)cc3n2)CC1", "Leishmania in macrophages": 34.46, "LiHisRS": 30.97, "Pks13 thioesterase": -3.738}
{"compound": "COc1cccc(CC(=O)N2CCN(C)c3ncccc3C2)c1", "LiHisRS": 23.29, "Pks13 thioesterase": -31.52}
{"compound": "CN(c1ncccc1CNC(=O)c1cscn1)C1CCCCC1", "Leishmania in macrophages": 5.591, "LiHisRS": -4.396, "Pks13 thioesterase": -4.994}
{"compound": "Cc1nn(C)c(Cl)c1CN1CCN(c2nccs2)C(C)C1", "stereo": "stereo not given", "Leishmania in macrophages": 20.32, "LiHisRS": 10.53, "Pks13 thioesterase": -10.52}
{"compound": "Cc1noc(Cl)c1CC(=O)N1CCC(Nc2cccnn2)CC1", "Leishmania in macrophages": 29.48, "LiHisRS": 5.357, "Pks13 thioesterase": 5.682}
{"compound": "CCCC(=O)Nc1cccc([C@H]2C[C@@H](NC(C)=O)CCO2)c1", "Leishmania in macrophages": 0.9579, "LiHisRS": 6.993, "Pks13 thioesterase": -4.211}
{"compound": "O=C(CC1CC1)N[C@@H]1CN(c2ncccn2)C[C@@H]2CCCO[C@@H]21", "LiHisRS": 5.714, "Pks13 thioesterase": -14.28}
{"compound": "O=C(O)C(F)(F)F.O=C(O)c1c(-c2ccoc2)ncc2c1CCN(C1CCOC1)C2", "stereo": "stereo not given", "Leishmania in macrophages": 26.75}
{"compound": "CCOCC(O)CN1CCN(C(=O)Cc2ccc3c(c2)CCO3)CC1", "stereo": "stereo not given", "Leishmania in macrophages": -8.092, "LiHisRS": 20, "Pks13 thioesterase": -5.375}
{"compound": "CCOCCC1(CNC(=O)c2ccsc2)CCC1", "Leishmania in macrophages": 3.58, "LiHisRS": 9.735, "Pks13 thioesterase": -3.275}
{"compound": "Cn1cc(CN2CCCC23CCN(C(=O)c2ccncc2)CC3)cn1", "LiHisRS": 16.36, "Pks13 thioesterase": -15.23}

Repeated from the top, 2 entries:

compound	Leishmania in macrophages	LiHisRS	Pks13 thioesterase
O=C(CN1CCCCC1Cn1cncn1)NCCc1ccsc1 (stereo not given)	2.591%	10.17%	-4.049%
CN(Cc1ncc[nH]1)CC(c1cccs1)N1CCOCC1 (stereo not given)	-1.036%	21.54%	-18.64%

Data taken from ChEMBL document CHEMBL3988442, “University of Dundee, Small-Polar-MMV Screening Library” (2021).